Results published in PubChem BioAssay AID1487 (National Center for Advancing Translational Sciences (NCATS), 2009).
Some of the results follow. These are further read-outs of the screen, such as a control signal, another cell line or another target. No call is given for them. Most of these compounds were active or inconclusive in the main read-out, so they are no random draw. Words in brackets tell the shape of the fitted curve; partial curves, single points and poor fits give uncertain potencies.

Assay: qHTS Assay for Modulators of Lamin A Splicing
Details: HeLa LMNA splicing GFP/RFP minigene ratio, 48 h
Method in brief: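 S3 HeLa stable clones carrying a lamin A-EGFP splicing minigene plus DsRed2 were seeded at 600 cells/well in Opti-MEM with 2% FBS, pin-dosed and incubated 48 h at 37°C. Acumen cytometry (488 nm) gave the GFP/RFP total-intensity ratio.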

[1] = measured here: GFP splicing reporter channel
[2] = measured here: RFP viability control channel

SMILES: CC1=Nc2ccccc2/C1=C\c1nc(-c2ccc(C(F)(F)F)cc2)oc1O
- AC50 [1]: 35.5 µM [falling, single point]
- AC50 [2]: 12.6 µM [falling, partial curve]

SMILES: O=C(c1ccc(S(=O)(=O)Nc2ccc(F)cc2)cc1)N1CCN(C(=O)c2ccco2)CC1
- AC50 [2]: 10 µM [rising, partial curve]

SMILES: Cc1c(N/N=C(\C#N)C(=O)c2ccc(Cl)cc2)c(=O)n(-c2ccccc2)n1C
- AC50 [2]: 8.91 µM [rising, single point]

SMILES: O=C1c2ccccc2C(Nc2ccc(-c3nc4ccccc4[nH]3)cc2)N1Cc1ccco1 (stereo unspecified)
- AC50 [2]: 14.1 µM [rising, partial curve]

SMILES: Cc1cc2[nH]c3ccccc3c2c(C)n1
- AC50 [2]: 35.5 µM [rising, single point]

SMILES: Nc1cccc(S(=O)(=O)c2cccc(N)c2)c1
- AC50 [1]: 3.55 µM [falling, single point]
- AC50 [2]: 3.16 µM [falling, single point]

SMILES: S=C(c1cn(Cc2ccc(Br)cc2)c2ccccc12)N1CCOCC1
- AC50 [2]: 35.5 µM [rising, single point]

SMILES: CN(Cc1nc(-c2ccncc2)no1)S(=O)(=O)c1ccc(Cl)cc1
- AC50 [2]: 25.1 µM [rising, single point]

SMILES: COc1ccc(S(=O)(=O)Nc2cccc(N(C)S(C)(=O)=O)c2)cc1C
- AC50 [2]: 11.2 µM [rising, partial curve]

SMILES: COc1ccc(NC(=O)c2ccc(Br)o2)cc1
- AC50 [1]: 1.58 µM [falling, partial curve]
- AC50 [2]: 1.58 µM [falling, partial curve, poor fit]

SMILES: Cc1c(Cl)cccc1NC(=O)c1cc(-c2ccccc2O)n[nH]1
- AC50 [2]: 20 µM [rising, single point]

SMILES: CCCCC1(Cc2ccc([N+](=O)[O-])cc2)C(=O)N(c2ccccc2)N(c2ccccc2)C1=O
- AC50 [2]: 8.91 µM [rising, partial curve]

SMILES: Cn1c(SCC(=O)Nc2ccccc2F)nc2c([nH]c3ccccc32)c1=O
- AC50 [1]: 35.5 µM [falling, partial curve]

SMILES: CCOc1ccccc1C(=O)NC(C(=O)Nc1ccccc1N1CCOCC1)C(C)C (stereo unspecified)
- AC50 [1]: 35.5 µM [rising, single point]
- AC50 [2]: 35.5 µM [rising, single point]

SMILES: Cc1occc1C(=O)Nc1ccc2ccccc2c1
- AC50 [1]: 12.6 µM [rising, single point]
- AC50 [2]: 17.8 µM [rising, single point]

SMILES: O=C1CCC/C(=N/Nc2ccc(Cl)cc2)C1
- AC50 [2]: 4.47 µM [rising, full curve]
